This is an account of results in PubChem BioAssay AID330 (DTP/NCI, 2004).

Structures are written as SMILES. The list is a part of this screen's results and no random one: its compounds were picked by chemical class. Not every dose and run of a compound is shown. T/C gives the treated animals as a percentage of the vehicle group. Some doses have a count of surviving animals in place of a T/C: the source files T/C as zero there, which appears to mark a toxic dose or a test without result, not a measured value. Some doses without a T/C left all or most animals alive at the check, yet need not have been tolerated: the source hardly ever lists a survival T/C far under the control, and the zero likely stands for such cases as well. Survivors were counted at the toxicity check, usually on the fifth day, unless a day is given; later deaths do not show. Schedules are NCI's codes, read here as Q, the interval in days (D) or hours (H), X, the number of doses. Some metal complexes and salts are drawn in pieces, as in the source, so charges may not balance. Some doses were run more than once; their values stand side by side, smallest first. Where survival is the endpoint, the PubChem record calls one and a half times the control and up active, and a quarter to a half above the control has no call in these data; cut-offs in other NCI protocols can differ. Some entries show no survivor count and are marked so; the dose need not have been tolerated. Some T/C values are followed by the survivors on the day toxicity was checked, most often the fifth; without a count or a note in brackets, all were alive then.

The subject of this test is P388 leukemia ip, CD2F1 mice, survival T/C. The test is described as follows: NCI In Vivo Anticancer Drug Screen. Data for tumor model P388 Leukemia (intraperitoneal) in CD2F1 (CDF1) mice. The settings on record: T/C endpoint: median survival time, higher T/C = longer survival.
The mark [1] stands for this setting: dose: 6.25 mg/kg/injection, schedule: Q01DX009 (ip), vehicle: saline.
Where [2] appears, read: dose: 12.5 mg/kg/injection, schedule: Q01DX009 (ip), vehicle: saline.
[3] abbreviates: dose: 25.0 mg/kg/injection, schedule: Q01DX009 (ip), vehicle: saline.
Where [4] appears, read: dose: 50.0 mg/kg/injection, schedule: Q01DX005 (ip), vehicle: Klucel (hydroxypropylcellulose) (HPC).
The mark [5] stands for this setting: dose: 100.0 mg/kg/injection, schedule: Q01DX005 (ip), vehicle: Klucel (hydroxypropylcellulose) (HPC).
Setting [6] is: dose: 200.0 mg/kg/injection, schedule: Q01DX005 (ip), vehicle: Klucel (hydroxypropylcellulose) (HPC).
Setting [7] is: dose: 100.0 mg/kg/injection, schedule: Q04DX003 (ip), vehicle: saline.
Where [8] appears, read: dose: 200.0 mg/kg/injection, schedule: Q04DX003 (ip), vehicle: saline.
The mark [9] stands for this setting: dose: 400.0 mg/kg/injection, schedule: Q04DX003 (ip), vehicle: saline.
[10] abbreviates: dose: 50.0 mg/kg/injection, schedule: Q01DX009 (ip), vehicle: saline.
Where [11] appears, read: dose: 100.0 mg/kg/injection, schedule: Q01DX009 (ip), vehicle: saline.
Where [12] appears, read: dose: 200.0 mg/kg/injection, schedule: Q01DX009 (ip), vehicle: saline.
Where [13] appears, read: dose: 50.0 mg/kg/injection, schedule: Q01DX009 (ip), vehicle: Klucel (hydroxypropylcellulose) (HPC).
[14] abbreviates: dose: 100.0 mg/kg/injection, schedule: Q01DX009 (ip), vehicle: Klucel (hydroxypropylcellulose) (HPC).
[15] abbreviates: dose: 200.0 mg/kg/injection, schedule: Q01DX009 (ip), vehicle: Klucel (hydroxypropylcellulose) (HPC).
[16] abbreviates: dose: 400.0 mg/kg/injection, schedule: Q01DX009 (ip), vehicle: Klucel (hydroxypropylcellulose) (HPC).

Consider `CC(C)N(CCS)C(C)C`, for which the T/C is, setting by setting: under setting [1], 97 % of control [survivor count not shown]; under setting [2], 98 % of control [survivor count not shown]; under setting [3], 100 % of control [survivor count not shown].

Regarding `Cc1cc(N(CCCl)CCCl)c2ccccc2c1`, the T/C is, setting by setting: (dose: 37.5 mg/kg/injection, schedule: Q04DX003 (ip), vehicle: Klucel (hydroxypropylcellulose) (HPC)) 195 % of control [5 of 6 alive]; (dose: 75.0 mg/kg/injection, schedule: Q04DX003 (ip), vehicle: Klucel (hydroxypropylcellulose) (HPC)) 255 % of control. The survivor count (dose: 150.0 mg/kg/injection, schedule: Q04DX003 (ip), vehicle: Klucel (hydroxypropylcellulose) (HPC)) is 5 of 6.

`n1nc(-c2nn[nH]n2)n[nH]1`: the T/C by setting is: (dose: 6.25 mg/kg/injection, schedule: Q01DX009 (ip), vehicle: saline with Tween-80) 99 % of control; (dose: 12.5 mg/kg/injection, schedule: Q01DX009 (ip), vehicle: saline with Tween-80) 96 % of control; (dose: 100.0 mg/kg/injection, schedule: Q01DX009 (ip), vehicle: saline with Tween-80) 88 % of control [5 of 6 alive]. The survivor count (dose: 25.0 mg/kg/injection, schedule: Q01DX009 (ip), vehicle: saline with Tween-80) is reported as 6 of 6 and the survivor count (dose: 50.0 mg/kg/injection, schedule: Q01DX009 (ip), vehicle: saline with Tween-80) is reported as 6 of 6.

Take `CC1=NP(=O)(c2ccccc2)N=C(C)N1`: the T/C by setting is: under setting [4], 97 % of control; under setting [5], 97 % of control; under setting [6], 92 % of control.

As for `NCCNCCCl`, the T/C under setting [7] is 91 % of control, the T/C under setting [8] was 100 % of control and the T/C under setting [9] was 95 % of control.

For the compound `[Au].[C-]#N.[C-]#N`, the T/C by setting is: (dose: 1.56 mg/kg/injection, schedule: Q01DX009 (ip), vehicle: saline) 122 % of control; (dose: 3.13 mg/kg/injection, schedule: Q01DX009 (ip), vehicle: saline) 128 and 138 % of control; under setting [1], 135 [4 of 6 alive] and 150 % of control [4 of 6 alive]. The survivor count runs as follows: under setting [2], 0 of 6 and 4 of 6; under setting [10], 0 of 6; under setting [11], 0 of 6; under setting [12], 0 of 6.

Turning to `ClP1(Cl)=NP(Cl)(Cl)=NP(Cl)(Cl)=NP(Cl)(Cl)=N1`, the T/C (dose: 12.5 mg/kg/injection, schedule: Q01DX009 (ip), vehicle: Klucel (hydroxypropylcellulose) (HPC)) was 102 and 106 % of control; the T/C (dose: 25.0 mg/kg/injection, schedule: Q01DX009 (ip), vehicle: Klucel (hydroxypropylcellulose) (HPC)) is recorded as 92, 94, 111 % of control; the T/C under setting [13] is 94, 100 [5 of 6 alive], 103 % of control; the T/C under setting [14] was 88, 93, 102 % of control; the T/C (dose: 100.0 mg/kg/injection, schedule: Q04DX003 (ip), vehicle: Klucel (hydroxypropylcellulose) (HPC)) is 117 and 120 % of control; the T/C under setting [15] is 103 and 111 % of control. In addition, the T/C (dose: 200.0 mg/kg/injection, schedule: Q04DX003 (ip), vehicle: Klucel (hydroxypropylcellulose) (HPC)) is 122 and 126 % of control; the T/C under setting [16] was 103 and 115 % of control; the T/C (dose: 400.0 mg/kg/injection, schedule: Q04DX003 (ip), vehicle: Klucel (hydroxypropylcellulose) (HPC)) was 126 and 128 % of control. The survivor count is, setting by setting: under setting [15], 6 of 6; under setting [16], 5 of 6.

For the compound `CC(C)OP(C)(=O)O.[Yb]`, the T/C (dose: 100.0 mg/kg/injection, schedule: Q04DX002 (ip), vehicle: saline with Tween-80) was 89 % of control [survivor count not shown]; the T/C (dose: 200.0 mg/kg/injection, schedule: Q04DX002 (ip), vehicle: saline with Tween-80) was 98 % of control [survivor count not shown]; the T/C (dose: 400.0 mg/kg/injection, schedule: Q04DX002 (ip), vehicle: saline with Tween-80) was 114 % of control [survivor count not shown].

As for `O=[N+]([O-])c1cccc(Oc2ccc([N+](=O)[O-])cc2[N+](=O)[O-])c1`, the T/C is 106 % of control under setting [13], 113 % of control under setting [14] and 116 % of control under setting [15].

`ClCCN(CCCl)B1SCCCS1`: the T/C runs as follows: (dose: 33.0 mg/kg/injection, schedule: Q04DX003 (ip), vehicle: saline with Tween-80) 186 % of control; (dose: 50.0 mg/kg/injection, schedule: Q04DX003 (ip), vehicle: saline with Tween-80, evaluated on day 20) 150 % of control; (dose: 50.0 mg/kg/injection, schedule: Q04DX003 (ip), vehicle: saline with Tween-80, evaluated on day 30) 195 % of control.

Take `CCOP1(=O)N=C(C)NC(C)=N1`: the T/C was 87 % of control [4 of 6 alive] under setting [4], 97 % of control under setting [5] and 95 % of control under setting [6].

Take `COc1ccccc1N1CC=C(c2ccccc2)OP1(=O)Cl` (centres undefined): the T/C was 112 % of control (dose: 25.0 mg/kg/injection, schedule: Q01DX005 (ip), vehicle: Klucel (hydroxypropylcellulose) (HPC)); 102 and 107 % of control under setting [4]; 107 and 125 % of control under setting [5]; 122 and 126 % of control under setting [6].

Regarding `CCOP1OCC(C(C)(C)C)CO1` (centres undefined), the T/C was 102 % of control under setting [2]; 109 % of control under setting [3]; 100 and 111 % of control under setting [10]. In addition, the survivor count under setting [11] was 0 of 6 and the survivor count under setting [12] is listed as 0 of 6.

Turning to `C1CN1.NC(CO)C(=O)O.Nc1ncnc2nc[nH]c12`, the T/C is 100 % of control under setting [7], 91 % of control under setting [8] and 88 % of control [4 of 6 alive] under setting [9].

Take `COC(=O)C1=CSCC(Cl)C1=O` (centres undefined): the T/C by setting is: (dose: 3.12 mg/kg/injection, schedule: Q01DX005 (ip), vehicle: saline) 99 % of control; (dose: 6.25 mg/kg/injection, schedule: Q01DX005 (ip), vehicle: saline) 115 % of control; (dose: 12.5 mg/kg/injection, schedule: Q01DX005 (ip), vehicle: saline) 118 % of control. Further, the survivor count by setting is: under setting [4], 0 of 6; under setting [5], 0 of 6; under setting [6], 0 of 6.

Turning to `COc1c([N+](=O)[O-])cc([N+](=O)[O-])c(C=O)c1OS(=O)(=O)c1ccc(C)c([N+](=O)[O-])c1`, the survivor count is reported as 6 of 6 (dose: 25.0 mg/kg/injection, schedule: Q01DX009 (ip), vehicle: distilled water + Tween-80) and 5 of 6 (dose: 400.0 mg/kg/injection, schedule: Q01DX009 (ip), vehicle: distilled water + Tween-80). Further, the T/C was 102 % of control (dose: 50.0 mg/kg/injection, schedule: Q01DX009 (ip), vehicle: distilled water + Tween-80); 100 % of control (dose: 100.0 mg/kg/injection, schedule: Q01DX009 (ip), vehicle: distilled water + Tween-80); 100 % of control (dose: 200.0 mg/kg/injection, schedule: Q01DX009 (ip), vehicle: distilled water + Tween-80).

For the compound `NCCC(N)CSP(=O)(O)O` (centres undefined), the T/C is, setting by setting: (dose: 25.0 mg/kg/injection, schedule: Q01DX005 (ip), vehicle: saline) 100 % of control; (dose: 50.0 mg/kg/injection, schedule: Q01DX005 (ip), vehicle: saline) 103 % of control; (dose: 100.0 mg/kg/injection, schedule: Q01DX005 (ip), vehicle: saline) 110 % of control; (dose: 200.0 mg/kg/injection, schedule: Q01DX005 (ip), vehicle: saline) 107 % of control.
